# Laboratory results published in patent publication US6110963A, “Aryl-oxo-acetic acids useful in the treatment of insulin resistance and hyperglycemia” (American Home Products Corporation, priority 1999, dated 2000).
# At least one structure is not confirmed: it was looked up by name or label, or the drawing left a doubt.
# Tested on: rat hepatic microsomal PTPases
# Conditions: PTPase activity, compound at 50 μM, rat liver microsomes
structure (smiles),measurement,value
CCCCc1oc2ccccc2c1Cc1ccc(-c2ccc(OCc3nnn[nH]3)cc2)cc1 [Example 18],% Change from Control,-65%
